{"source": "PubChem BioAssay AID1347423", "about": "(Functional Genomics Laboratory (NCATS/FGL), 2020)", "note": "Among all 52,000 sequences or so, about 210 (0.4%) were called active.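 Rule for the calls: active = gene whose silencing raises cell survival under the drug, median off-target-corrected z-score across its silencing RNAs 2 or more; inactive = the rest.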 Some of the results follow."}
{"assay": "Resistance to Poly (ADP-Ribose) Polymerase inhibitor: Gene Identification via Genome-wide siRNA Screen", "details": "mouse BRCA2 R2336H ES cells, olaparib, CellTiter-Glo viability; active compounds read high", "summary_of_the_method": "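Mouse BRCA2 R2336H ES cells were reverse-transfected with siRNA (20 nM final), treated at 48 h with 500 nM olaparib, and read by CellTiter-Glo after 72 h. Scores: MAD-based z per siRNA, median per gene, seed off-target correction.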"}
{"sequence": "GGUCCUUGAUGAGUGUAAUTT against Erp29", "z-score": "inactive: -0.25"}
{"sequence": "CCUUGUAGCUCUGAGGAUATT against 2310042E22Rik", "z-score": "inactive: -0.187"}
{"sequence": "GGACCAGUUAAAGUCACCATT against Atp4b", "z-score": "inactive: -0.369"}
{"sequence": "GGCUAAUACCAAACCUAUATT against Tisp78", "z-score": "inactive: -0.567"}
{"sequence": "ACCUGUGAUGGUGGAGACUTT against AF067061", "z-score": "inactive: 2.08"}
{"sequence": "GGGUCAUGGACAAUAGAAATT against Olfr52", "z-score": "inactive: -0.244"}
{"sequence": "GGACUAUUCACACUAAGUCTT against 1110038F21Rik", "z-score": "inactive: -0.752"}
{"sequence": "UUGUAUUGAGUGGUUAAGCTT against LOC382686", "z-score": "inactive: -0.473"}
{"sequence": "GGAACAAAAACUGGUGCGCTT against Emilin2", "z-score": "inactive: 3.22"}
{"sequence": "UUGUUAUAGCACUUCCAAATT against 4921511C04Rik", "z-score": "inactive: -0.397"}
{"sequence": "CGAGCAUAAAAGUUAUGUGTT against Chaf1b", "z-score": "inactive: -1.24"}
{"sequence": "GCUGUAGAGAUCAAUAGAGTT against Abcd2", "z-score": "inactive: 0.149"}
{"sequence": "GGAGCAAUUGAGAAAGAAGTT against Moap1", "z-score": "inactive: -0.504"}
{"sequence": "GCAAAACUUCGGAUAGUCATT against Gak", "z-score": "inactive: 2.71"}
{"sequence": "GGACGGUUACAAUGUGUACTT against Fgf21", "z-score": "inactive: 0.193"}
{"sequence": "CGAGUAGUGAUGCUGUUGATT against Dhx33", "z-score": "inactive: 0.223"}
{"sequence": "GGAAGAAAAAGCCGGGAAGTT against Fbxo3", "z-score": "inactive: -0.625"}
{"sequence": "GCAGGUUCACGACACCAACTT against Sv2a", "z-score": "inactive: -1.39"}
{"sequence": "GGAAGACAAGGUUUUAGCUTT against A430108B07Rik", "z-score": "inactive: 0.745"}
{"sequence": "CGGGUCAAUUUGAAUGCAUTT against Polydom", "z-score": "inactive: 0.379"}
{"sequence": "GGAAAUCUACGAUUUCUAATT against D12Ertd553e", "z-score": "inactive: 2.17"}
{"sequence": "CCUUAGCAAUGGGAUUGAUTT against Rasl12", "z-score": "inactive: 0.164"}
{"sequence": "GGGCUUUGGACAUCUCCUATT against Serpina3c", "z-score": "inactive: -2.57"}
{"sequence": "GGGAAAACCGAAUAAAGAUTT against Ren2", "z-score": "inactive: 0.786"}
{"sequence": "GGGAGAAUUAAACCUAAAGTT against Hus1", "z-score": "inactive: -0.269"}
{"sequence": "GGUACCACCAUGCUAUGGUTT against AY026312", "z-score": "inactive: 1.66"}
{"sequence": "GCUGAAAAUGACCCGGAAGTT against Cftr", "z-score": "inactive: -1.81"}
{"sequence": "GCAGUUAUGCCAGCUAUACTT against Hao3", "z-score": "inactive: -2.37"}
{"sequence": "GGCCCAUGUAACAAAUAGATT against Tm4sf13", "z-score": "inactive: 0.154"}
{"sequence": "GGAGCAUUCAAAUUACAUCTT against Ccni", "z-score": "inactive: -0.193"}
{"sequence": "GGAGACAGAUCCUCUCAAUTT against Map4k2", "z-score": "inactive: 1.63"}
{"sequence": "CCGUCUUCGAUGAGGCAAUTT against Rac2", "z-score": "inactive: -0.0941"}
{"sequence": "GGCAGAAGCCGUUAGAGAUTT against Ddc8", "z-score": "inactive: 0.534"}
{"sequence": "CCAAGUCCAUAGUUGAACUTT against Bnc1", "z-score": "inactive: -0.0433"}
{"sequence": "GGAGGAACCUACCUUUGACTT against Tbc1d17", "z-score": "inactive: 0.509"}
{"sequence": "GCGUAAGGAAGUUCUGUGCTT against Ly96", "z-score": "inactive: -0.627"}
{"sequence": "GGUGAACAAUAUCUUCAUCTT against Klf5", "z-score": "inactive: 0.688"}
{"sequence": "CCCAAAUGCGCCAAAAUCATT against Deadc1", "z-score": "inactive: -0.223"}
{"sequence": "GGUUUUAAAGCAAUGAGCATT against Olfr995", "z-score": "inactive: 0.778"}
{"sequence": "GCGUAUGGAAUCAUAAGAATT against Smurf2", "z-score": "inactive: -0.469"}
{"sequence": "GCUACAUCAAGGAAUUACUTT against D7Bwg0611e", "z-score": "inactive: -0.167"}
{"sequence": "CCAGUCACGUUUUAAAAGCTT against 2410075B13Rik", "z-score": "inactive: -0.0647"}
{"sequence": "GAUCUGUUUGAACAGUAUGTT against Clps", "z-score": "inactive: -0.327"}
{"sequence": "GGACAUCAUGAACAAGCAATT against Ghrh", "z-score": "inactive: 1.38"}
{"sequence": "GGAAAAUGUCUGUGAUCAUTT against Tulp3", "z-score": "inactive: -0.815"}
{"sequence": "GUUAAAGACUAACCUGUUATT against 2310010M20Rik", "z-score": "inactive: -0.402"}
{"sequence": "GGCAAGAUGUAUGAUGCUUTT against Slpi", "z-score": "inactive: -0.637"}
{"sequence": "CGAGCAUGUGUUACAUUAUTT against 2600017J23Rik", "z-score": "inactive: -0.691"}
{"sequence": "GGCUCAUCUAUCAGAUUUUTT against Clic5", "z-score": "inactive: 2.14"}
{"sequence": "GCUACAAUGUCUUCUGGUCTT against Gcs1", "z-score": "inactive: 1.17"}
{"sequence": "GGAAAACAAGUGCAGCAUGTT against D230012E17Rik", "z-score": "inactive: 0.418"}
{"sequence": "GCACUAGCUAAUAAUGCAATT against 4933425A18Rik", "z-score": "inactive: 1.68"}
{"sequence": "GGAAAUGAACUCAUAGCCATT against Olfr121", "z-score": "inactive: -0.444"}
{"sequence": "GGUGCUAGAUCCACAGAACTT against Agrp", "z-score": "inactive: 1.08"}
{"sequence": "GGUCAAUUCACUUUGUAAGTT against Meox1", "z-score": "inactive: 0.979"}
{"sequence": "GAUGGAGAUCAAGAUAUGGTT against Obox5", "z-score": "inactive: 1.12"}
{"sequence": "GGUUGUUCGUAGUCUUCCUTT against AI159731", "z-score": "inactive: -1.43"}
{"sequence": "CCAACUAAUGCCAAAAGAATT against Fnta", "z-score": "inactive: -1.32"}
{"sequence": "CCAGUUUUUAGUUGUAGCCTT against Mta3", "z-score": "inactive: 0.471"}
{"sequence": "GGAAUUUGAGGAAUUGACATT against Dck", "z-score": "inactive: -0.93"}
{"sequence": "AGAAAUGCCUCUUCAGUGATT against Olfr884", "z-score": "inactive: 1.32"}
{"sequence": "GGACAUGAAGAUGGGAUCUTT against Pctk1", "z-score": "inactive: -0.21"}
{"sequence": "CCGAAGUCAACUAAACUUATT against 3110002H16Rik", "z-score": "inactive: 0.492"}
{"sequence": "GGCACUAAUGAACAACUCUTT against Daam1", "z-score": "inactive: 0.0389"}
{"sequence": "GGAAGACUCGGAGUUUCUATT against Ece2", "z-score": "inactive: 1.88"}
{"sequence": "CCACCAAGUGGUUUAUACATT against Atf7ip", "z-score": "inactive: -0.91"}
{"sequence": "GGAUAAAUUCAAUGAGACATT against Afm", "z-score": "inactive: 0.546"}
{"sequence": "CCUUGUUGCUCUGUCGAUCTT against Grina", "z-score": "inactive: -0.202"}
{"sequence": "CCUUAUUAGUGGAUCUAAATT against 1010001D01Rik", "z-score": "inactive: -0.693"}
{"sequence": "GGAUGAAGAUGAUGGAUGGTT against C330016H24Rik", "z-score": "inactive: 0.585"}
{"sequence": "GGGUAAGAGUUACAGAAUATT against Serpinb8", "z-score": "inactive: -0.46"}
{"sequence": "CGCAACCUGUCACAUAAUATT against Bmpr2", "z-score": "inactive: -0.839"}
{"sequence": "GGAAUGGUUUGAAGAACUUTT against Tlr6", "z-score": "inactive: -0.38"}
{"sequence": "CCAGACAUUUGAUAGCCAUTT against 5730508B09Rik", "z-score": "inactive: 1.24"}
{"sequence": "GCGAGAUAGGCUUUACUCUTT against Kdr", "z-score": "inactive: -0.535"}
{"sequence": "GGGCACUUCUGUCUUUGUCTT against P2rx3", "z-score": "inactive: 1.94"}
{"sequence": "GGAAAUGCCUUCAGAAAUUTT against Slc9a3r1", "z-score": "inactive: 0.863"}
{"sequence": "GGACUUAAGUACAAAGAUCTT against Sap18", "z-score": "inactive: 2.7"}
{"sequence": "GGUGAACAAGCUGUCCUCATT against Fgl2", "z-score": "inactive: 2.97"}
{"sequence": "GGUAUUAGUAUGUAUCUUCTT against Olfr135", "z-score": "inactive: -0.138"}
{"sequence": "GGAGAUCAUGAAGGAGCUATT against Lcn7", "z-score": "inactive: -2.15"}
{"sequence": "GGCCUUUUUCUUUCUUUUCTT against Olfr212", "z-score": "inactive: 0.911"}
{"sequence": "GCACUGAGCACAAGAAGAGTT against MGC54654", "z-score": "inactive: -2.13"}
{"sequence": "GGCAGCCUGAACAUCAAUGTT against S100a13", "z-score": "inactive: 1.15"}
{"sequence": "CGACUUGAACAUGGUAAAATT against Eif5b", "z-score": "inactive: 1.5"}
{"sequence": "GGAGACAGAAAAUCAAGGCTT against Taf7", "z-score": "inactive: 0.536"}
{"sequence": "CCCAUGACCAAUGGGUGAATT against BC042549", "z-score": "inactive: 0.952"}
{"sequence": "GGAUGUGGCUGCUUUGAAGTT against Wbscr27", "z-score": "inactive: 0.123"}
{"sequence": "CCAUGUUUUUAUAGCUCUUTT against BC023957", "z-score": "inactive: 0.745"}
{"sequence": "GGCAAGUGCAAUUUAUAAATT against Nfib", "z-score": "inactive: -0.656"}
{"sequence": "GGAUCAAAGCUCCGGUAUATT against Farslb", "z-score": "inactive: -2.22"}
{"sequence": "GGAAAAAGUCAGAGAAAAATT against Sstr2", "z-score": "inactive: 0.162"}
{"sequence": "GGGAAUGGAAGAAUAUUCUTT against Dppa2", "z-score": "inactive: 3.23"}
{"sequence": "GGGAUUUUUUGAACUGAUATT against Nedd4", "z-score": "inactive: -0.431"}
{"sequence": "GCCGUUACUGAGCUGAAAUTT against Allc", "z-score": "inactive: 2.02"}
{"sequence": "GGGCAUUGUUCACAAGGACTT against Stk11", "z-score": "inactive: 2.23"}
{"sequence": "GGAUGUUGAAGGUUUUGAATT against Fmr1nb", "z-score": "inactive: -0.69"}
{"sequence": "GGAGAUCCAUUAGUGAGACTT against Mdm2", "z-score": "inactive: -1.32"}
{"sequence": "GGAAAAGCCUACUUCAAAATT against BC020077", "z-score": "inactive: 1.89"}
{"sequence": "CGUAUUCAACCUUCAUAGATT against 1700040L02Rik", "z-score": "inactive: 0.624"}
{"sequence": "GGAACUUAAGACUUUCAAGTT against Abcf2", "z-score": "inactive: -0.611"}
{"sequence": "GGAGUGUGGCAUUCAUCCUTT against Olfr667", "z-score": "inactive: -0.961"}
{"sequence": "GCGUGUGCGUGAUAAGUAUTT against Azi1", "z-score": "inactive: 0.0507"}
{"sequence": "GGAGAGAGGAAUUCAACAGTT against Zfp75", "z-score": "inactive: -0.0317"}
{"sequence": "GGGCAAGUUUUUUUUUCUUTT against Sf3a2", "z-score": "inactive: 0.943"}
